From PMC8452638
Construct, isoform or probe ends are uncertain for at least one entry. For part of these data: Negatives hold for the conditions tested. For part of these data: Where a protein sequence is shown, tags need not be part of it. For part of these data: The comparison behind a weaker result is the experiment's own reference, which may not be listed here. For part of these data: At least one verdict rests on a figure or table, not on a statement of the authors.

By UniProt entry, the sequences of proteins in these tests, tags left out.
UniProt Q06609, whole entry: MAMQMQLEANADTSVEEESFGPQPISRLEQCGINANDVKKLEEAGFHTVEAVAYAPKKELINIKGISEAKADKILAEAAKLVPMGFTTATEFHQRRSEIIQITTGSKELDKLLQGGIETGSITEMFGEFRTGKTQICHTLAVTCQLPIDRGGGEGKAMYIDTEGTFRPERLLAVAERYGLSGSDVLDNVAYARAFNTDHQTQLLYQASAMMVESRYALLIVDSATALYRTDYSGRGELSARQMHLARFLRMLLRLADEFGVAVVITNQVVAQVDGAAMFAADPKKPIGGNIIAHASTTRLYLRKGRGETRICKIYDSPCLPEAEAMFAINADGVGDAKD

How the values were obtained:
RAD-51 [1] = assay: EMSA (glutaraldehyde crosslinked); conditions: no nucleotide, SF buffer: 50 mM Tris-HCl pH 7.5, 5 mM MgCl2, 50 mM NaCl, 2 mM ATP or ADP or no nucleotide, EMSA 25 C with 0.125% glutaraldehyde, recombinant protein, protein details: His-SUMO removed by Ulp1, label: 5'-FITC, single-stranded DNA
RAD-51 [2] = assay: EMSA (glutaraldehyde crosslinked), competition; conditions: ADP, SF buffer: 50 mM Tris-HCl pH 7.5, 5 mM MgCl2, 50 mM NaCl, 2 mM ATP or ADP or no nucleotide, EMSA 25 C with 0.125% glutaraldehyde, recombinant protein, protein details: His-SUMO removed by Ulp1, label: 5'-FITC, single-stranded DNA
RAD-51 D238A = assay: stopped-flow Cy3 fluorescence; conditions: SF buffer: 50 mM Tris-HCl pH 7.5, 5 mM MgCl2, 50 mM NaCl, 2 mM ATP or ADP or no nucleotide, recombinant protein, label: Cy3, single-stranded DNA
hsRAD51 (human) = hsRAD51 (human) (UniProt Q06609); assay: stopped-flow Cy3 fluorescence; conditions: SF buffer: 50 mM Tris-HCl pH 7.5, 5 mM MgCl2, 50 mM NaCl, 2 mM ATP or ADP or no nucleotide, label: Cy3, single-stranded DNA
RAD-51 [3] = assay: stopped-flow Cy3 fluorescence; conditions: SF buffer: 50 mM Tris-HCl pH 7.5, 5 mM MgCl2, 50 mM NaCl, recombinant protein, protein details: His-SUMO removed by Ulp1, single-stranded DNA
scRad51 = target: T1, scRad51 (UniProt P25454); assay: stopped-flow Cy3 fluorescence; conditions: SF buffer: 50 mM Tris-HCl pH 7.5, 5 mM MgCl2, 50 mM NaCl, 2 mM ATP or ADP or no nucleotide, recombinant protein, label: Cy3, single-stranded DNA
T1 sequence (looked up, limits assumed): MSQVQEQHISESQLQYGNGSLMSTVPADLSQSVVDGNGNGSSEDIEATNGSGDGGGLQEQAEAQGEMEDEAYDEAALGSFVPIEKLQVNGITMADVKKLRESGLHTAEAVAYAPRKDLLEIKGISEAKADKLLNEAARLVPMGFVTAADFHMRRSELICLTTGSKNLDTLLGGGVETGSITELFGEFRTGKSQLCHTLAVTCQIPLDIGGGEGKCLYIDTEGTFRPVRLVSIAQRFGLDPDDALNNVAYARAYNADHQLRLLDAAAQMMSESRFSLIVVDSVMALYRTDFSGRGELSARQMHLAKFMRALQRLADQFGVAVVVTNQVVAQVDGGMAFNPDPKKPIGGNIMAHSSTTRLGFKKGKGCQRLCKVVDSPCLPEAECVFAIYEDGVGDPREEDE

RAD-51 [4] = assay: stopped-flow Cy3 fluorescence, competitor challenge; conditions: ADP, with RFS-1/RIP-1, filament destabilized, SF buffer: 50 mM Tris-HCl pH 7.5, 5 mM MgCl2, 50 mM NaCl, 2 mM ATP or ADP or no nucleotide, EMSA 25 C with 0.125% glutaraldehyde, recombinant protein, protein details: His-SUMO removed by Ulp1, single-stranded DNA
RAD-51 [5] = assay: BLI; conditions: SF buffer: 50 mM Tris-HCl pH 7.5, 5 mM MgCl2, 50 mM NaCl, 2 mM ATP or ADP or no nucleotide, BLI room temperature with 0.05% Tween 20, recombinant protein, protein details: His-SUMO removed by Ulp1, label: biotin (3' in text, table prints 5'-Biotin), single-stranded DNA

Sequence: GACGCTGCCGAATTCTACCAGTGCCTTGCTAGGACATCTTTGCCCACCTGCAGGTTCACCC [5'-FITC-61mer]
- binding result (RAD-51 [1]; RAD-51 alone, complexes in wells): binds
- binding result (RAD-51 [1]; with RFS-1 E138A/RIP-1, less free DNA than with wild type): binds more weakly
- binding result (RAD-51 [1]; with RFS-1 K56A/RIP-1, less free DNA than with wild type): binds more weakly
- binding result (RAD-51 [1]; with wild-type RFS-1/RIP-1, more free ssDNA): binds more weakly
- binding result (RAD-51 [2]; RAD-51 alone): binds
- binding result (RAD-51 [2]; with 0.5 uM RFS-1/RIP-1, more prone to dissociation by unlabelled 61mer): binds more weakly

Sequence: TTTTTTTTTTTTTTTTTTTTTTTTTTTTTTTTTTTTTTTTTTT [Cy3-43mer (label position not stated)]
- binding result (RAD-51 D238A; ATP, stimulation by RFS-1/RIP-1 impaired): binds
- binding result (RAD-51 D238A; no nucleotide, RFS-1/RIP-1 block of binding profoundly defective): binds
- binding result (hsRAD51 (human); ATP, not stimulated by RFS-1/RIP-1, recombinant protein): binds
- binding result (hsRAD51 (human); no nucleotide, 1 uM, not changed by RFS-1/RIP-1, recombinant …): binds
- binding result (RAD-51 [3]; no nucleotide, 1 uM RAD-51 alone, complex unstable on dilution, 2 mM ATP or ADP or no nucleotide, label: Cy3): binds
- binding result (RAD-51 [3]; no nucleotide, with RFS-1 E138A/RIP-1, inhibition less than wild type, 2 mM ATP or ADP or no nucleotide, label: Cy3): binds more weakly
- binding result (RAD-51 [3]; no nucleotide, with RFS-1 K56A/RIP-1, inhibition less than wild type, 2 mM ATP or ADP or no …, label: Cy3): binds more weakly
- binding result (scRad51; ADP, 250 nM): no binding
- binding result (scRad51; ATP, not stimulated by RFS-1/RIP-1): binds
- binding result (scRad51; no nucleotide, 1000 nM): no binding

Sequence: TTTTTTTTTTTTTTTTTTTTTTTTTTTTTTTTTTTTTTTTTTT [5'-Cy3-43mer]
- binding result (RAD-51 [3]; ADP, 250 nM RAD-51, stimulated by RFS-1/RIP-1, 2 mM ATP or ADP or no nucleotide, label: 5'-Cy3): binds
- binding result (RAD-51 [3]; ATP, 250 nM RAD-51, stimulated by RFS-1/RIP-1, 2 mM ATP or ADP or no nucleotide, label: 5'-Cy3): binds
- binding result (RAD-51 [4]; label: 5'-Cy3): binds more weakly

Sequence: TTTTTTTTTTTTTTTTTTTTTTTTTTTTTTTTTTTTTTTTTTT [3'-Cy3-43mer]
- binding result (RAD-51 [3]; ADP, 250 nM RAD-51, stimulated by RFS-1/RIP-1, 2 mM ATP or ADP or no nucleotide, label: 3'-Cy3): binds
- binding result (RAD-51 [3]; ATP, 250 nM RAD-51, stimulated by RFS-1/RIP-1, 2 mM ATP or ADP or no nucleotide, label: 3'-Cy3): binds
- binding result (RAD-51 [4]; label: 3'-Cy3): binds more weakly

Sequence: TTTTTTTTTTTTTTTTTTTTTTTTTTTTTTTTTTTTTTTTTTT [(Int21)-Cy3-43mer]
- binding result (RAD-51 [3]; ADP, 250 nM RAD-51, stimulated by RFS-1/RIP-1, Cy3 in backbone after nt 21, 2 mM ATP or ADP or no nucleotide, label: internal Cy3): binds
- binding result (RAD-51 [3]; ATP, 250 nM RAD-51, stimulated by RFS-1/RIP-1, Cy3 in backbone after nt 21, 2 mM ATP or ADP or no nucleotide, label: internal Cy3): binds

Sequence: TTTTTTTTTTTTTTTTTTTTTTTTTTTTTTTTTTTTTTTTTTT [biotinylated dT43]
- binding result (RAD-51 [5]; ADP, sensor fully coated at 1 uM RAD-51): binds
- binding result (RAD-51 [5]; ADP, with RFS-1/RIP-1, dissociation stimulated): binds more weakly
- binding result (RAD-51 [5]; ATP, sensor fully coated at 1 uM RAD-51): binds
